The other results are listed elsewhere or left out. These are further read-outs of the screen, such as a control signal, another cell line or another target. No call is given for them. Most of these compounds were active or inconclusive in the main read-out, so they are no random draw. Words in brackets tell the shape of the fitted curve; partial curves, single points and poor fits give uncertain potencies. Peptide text beside a SMILES is read from it. * marks the point of attachment. Cbz = O=C(OCc1ccccc1)*
Test: qHTS Assay to Find Inhibitors of Chronic Active B-Cell Receptor Signaling
Settings: ABC-DLBCL IkBa-CBG/CBR reporter, luminescence ratio (green luciferase fused to IkBa over red control in TMD8 lymphoma cells), 4 h
Outline: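 Cell line TMD8 (human ABC DLBCL), stably expressing tet-inducible CBG68-IkBa fusion and CBR; IMDM/0.5% FBS; cpd up to 46 uM; dox induction, 4 h, 37C/5% CO2; dual luminescence; green/red ratio; MG132 control.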

[1] = measured here: CBR red luminescence, cell number
[2] = measured here: IkBa-CBG green luminescence

O=C(COc1ccc(C(=O)c2ccccc2)cc1)NCC(=O)Nc1ccccc1Br
AC50 [1]: 5.17 µM [rising, single point]

CCN(C(=O)COC(=O)c1cc(Cl)ccc1OC)c1c(N)n(Cc2ccccc2)c(=O)[nH]c1=O
AC50 [1]: 29.1 µM [rising, single point]

O=C1c2ccccc2NC(c2cn[nH]c2-c2ccc(Cl)cc2)N1O (centres undefined)
AC50 [1]: 2.06 µM [falling, full curve]

COc1ccccc1NS(=O)(=O)c1cc(NC(=O)Cc2n[nH]c(=O)c3ccccc23)ccc1Cl
AC50 [1]: 18.4 µM [falling, partial curve, poor fit]

CCOC(=O)CCSc1nnc(-c2cccnc2)n1-c1ccccc1OC
AC50 [1]: 8.2 µM [falling, partial curve]

CCc1ccc(OCCn2cccn2)cc1
AC50 [1]: 3.98 µM [rising, full curve, poor fit]

COc1ccc(OC)c(/C=N/Nc2nncn2/N=C/c2cc(OC)ccc2OC)c1
AC50 [1]: 32.6 µM [falling, partial curve, poor fit]

CCCc1ccc(OC(=O)c2ccc(O)cc2Cl)cc1
AC50 [1]: 3.98 µM [falling, partial curve]

Cc1cc(C)c2sc(NC(=O)C3=COCCO3)nc2c1
AC50 [1]: 3.98 µM [falling, full curve, poor fit]

CCN(CC(=O)NCc1ccc(Cl)cc1)C(=O)c1ccc(S(=O)(=O)NCc2ccco2)cc1
AC50 [1]: 17.8 µM [falling, single point]

NS(=O)(=O)c1ccc2nc(NC(=O)c3ccc4ncsc4c3)sc2c1
AC50 [1]: 3.98 µM [falling, partial curve]

COc1ccc(C(C(=O)NC2CCCC2)N(C(=O)c2snc(-c3ccc(F)cc3)c2N)c2cccc(F)c2)cc1 (centres undefined)
AC50 [1]: 6.51 µM [rising, single point]

Cc1ccc(-c2cc(-c3ccc(F)cc3)c(C#N)c(N)n2)o1
AC50 [1]: 2.06 µM [falling, full curve, poor fit]

CC(C)C(=O)Nc1ncc(Cc2ccccc2Cl)s1
AC50 [1]: 6.31 µM [rising, single point]

COc1ccc(S(=O)(=O)NC(C)C(=O)Nc2ccccc2F)cc1 (centres undefined)
AC50 [1]: 35.5 µM [falling, single point]

Cc1ccc(C)c(C(=O)CN2C(=O)NC3(CCCCCC3)C2=O)c1
AC50 [1]: 0.517 µM [rising, full curve, poor fit]

O=C(Nc1ccccn1)c1nc(-c2ccccc2)n(-c2ccccc2)n1
AC50 [1]: 6.51 µM [falling, single point]

Cc1cc(Cl)c2oc(C(=O)N3CCCCC3CCN3CCCC3=O)c(C)c2c1 (centres undefined)
AC50 [1]: 17.8 µM [falling, single point]

Cc1ccc(COc2ccc(C)nc2[N+](=O)[O-])cc1
AC50 [1]: 17.8 µM [rising, partial curve, poor fit]

CCc1ccc(OCc2ccc(C(=O)O)o2)cc1
AC50 [1]: 6.31 µM [falling, partial curve]

Cc1ccc(NC(=O)COC(=O)Cc2c[nH]c3ccccc23)cc1F
AC50 [1]: 14.6 µM [falling, partial curve]

Cc1c(CNCCc2ccccc2)c(C(=O)O)c(C)n1-c1ccccc1
AC50 [1]: 22.4 µM [falling, single point]

COc1ccc(-c2cc(C(F)(F)F)n3nc(C(=O)Nc4cc(C)on4)cc3n2)cc1OC
AC50 [1]: 2.59 µM [rising, full curve, poor fit]

Cc1ccc(OCc2ccc(C(=O)O)o2)c([N+](=O)[O-])c1
AC50 [1]: 18.4 µM [falling, single point]

CC(C)c1ccc(NC(=O)NCc2ccc(F)cc2)cc1
AC50 [1]: 0.562 µM [rising, full curve, poor fit]

Cc1ccc(S(=O)(=O)CCC(=O)O)cc1C
AC50 [1]: 20.6 µM [rising, single point]

COc1cc2c(cc1OC)/C(=C/c1ccc(Cl)cc1)C(=O)OC2
AC50 [1]: 14.1 µM [falling, single point]

COc1ccc(OCc2cccc(C(=O)Nc3cc(C)on3)c2)cc1
AC50 [1]: 18.4 µM [falling, partial curve, poor fit]

COc1cc(CC(=O)Nc2sc3c(c2C(N)=O)CCCC3)cc(OC)c1OC
AC50 [1]: 5.01 µM [rising, single point]

O=C(O)CCn1cc(-c2ccc(Cl)cc2)nc1-c1ccncc1
AC50 [1]: 6.51 µM [rising, single point] | AC50 [2]: 6.51 µM [falling, single point]

O=[N+]([O-])c1cccc(Cl)c1NCCNS(=O)(=O)c1ccccc1
AC50 [1]: 6.31 µM [rising, partial curve, poor fit]

Cc1nc2ccccc2c(=O)n1NCc1cccs1
AC50 [1]: 20 µM [falling, partial curve, poor fit]

Fc1cccc(/C=N/Nc2nncc3ccccc23)c1
AC50 [1]: 6.31 µM [falling, full curve]

CSc1ncccc1C(=O)NCC1CCCCC1
AC50 [1]: 2.24 µM [rising, full curve, poor fit]

Cn1c(-c2ccc3c(c2)OCO3)cnc1NCc1cccc(O)c1
AC50 [1]: 35.5 µM [falling, single point]

O=C(COC(=O)/C=C/c1ccc(OC(F)F)cc1)NCc1cccs1
AC50 [1]: 0.731 µM [rising, full curve, poor fit]

Cc1c(O)ccc(NC(=O)/C=C/c2ccccc2)c1C
AC50 [1]: 11.2 µM [falling, partial curve]

CC(NC(=O)COC(=O)c1cccc(S(=O)(=O)N2CCCC2)c1)c1ccccc1 (centres undefined)
AC50 [1]: 23.1 µM [rising, single point]

CC(=O)c1ccc(CCCCCCCCCC(=O)O)s1
AC50 [1]: 11.2 µM [falling, partial curve, poor fit]

CC(NC(=O)CNC(=O)C(Cc1ccccc1)NC(=O)OCc1ccccc1)C(N)=O (stereo not drawn) (Cbz-Phe-Gly-Ala-NH2; configuration not given here)
AC50 [1]: 2.24 µM [rising, full curve]

CN(C)c1ccc(NC(=O)CSc2nc(N)c(C(=O)Nc3ccc(N(C)C)cc3)s2)cc1
AC50 [1]: 5.62 µM [falling, partial curve]

CCc1nc(-c2cc3ccc(C)cc3[nH]c2=O)no1
AC50 [1]: 0.517 µM [rising, full curve, poor fit]

COc1ccccc1CNC(=O)CCCc1cn(C)c2ccccc12
AC50 [1]: 20 µM [falling, partial curve, poor fit]

Cc1ccc(S(=O)(=O)c2nnn3c2nc(Nc2cccc(C)c2)c2ccccc23)cc1
AC50 [1]: 20.6 µM [falling, partial curve, poor fit]

Cc1cc(Cl)ccc1NC(=O)c1cc(S(=O)(=O)N2CCOCC2)cn1C
AC50 [1]: 3.16 µM [rising, partial curve, poor fit]

O=C(CSc1n[nH]c(-c2cccs2)n1)N1CCN(S(=O)(=O)c2ccccc2)CC1
AC50 [1]: 20 µM [rising, single point]

CC(C)(C)C(=O)/C(=C\c1ccc([N+](=O)[O-])cc1)n1cncn1
AC50 [1]: 7.31 µM [falling, partial curve] | AC50 [2]: 10.3 µM [rising, partial curve, poor fit]

COc1ccc(C)cc1NC(=O)C(OC(=O)CNC(=O)c1ccc(Br)cc1)c1ccccc1 (centres undefined)
AC50 [1]: 32.6 µM [rising, partial curve, poor fit]

COc1cccc(N2CCN(C(=O)c3cc4ccc(OC)cc4[nH]3)CC2)c1
AC50 [1]: 14.1 µM [falling, partial curve, poor fit]

CC1=NN(/C(=N\c2nnc(C)s2)Nc2ccc(C(C)(C)C)cc2)[C@H](c2ccc(C)cc2)S1
AC50 [2]: 29.1 µM [rising, partial curve, poor fit]

COc1ccc(CN2CCN(Cc3cc(=O)oc4cc(C)ccc34)CC2)c(OC)c1OC
AC50 [1]: 14.1 µM [falling, single point]

CN(C)c1ccc(C(CNS(=O)(=O)c2ccc(F)cc2)c2c[nH]c3ccccc23)cc1 (centres undefined)
AC50 [1]: 9.2 µM [falling, partial curve, poor fit]

CC(=O)NC(=S)Nc1cccc2ccc(C)nc12
AC50 [1]: 7.08 µM [falling, partial curve]

CN1C(=O)/C(=C/c2cn(CC(=O)N3CCCCC3)c3ccccc23)c2ccccc21
AC50 [1]: 13 µM [falling, partial curve, poor fit]

Cc1ccc([N+](=O)[O-])c(-c2n[nH]c(=S)n2-c2cccc(Cl)c2)c1
AC50 [1]: 0.112 µM [rising, full curve, poor fit]

O=C(N/N=C/C(Br)=C/c1ccccc1)c1ccccc1F
AC50 [1]: 14.1 µM [falling, partial curve]

O=C(N/N=C/c1ccccc1)c1ccc2c(c1)OCO2
AC50 [1]: 4.47 µM [falling, partial curve, poor fit]

COC(=O)c1nn(Cc2ccccc2)c(=O)c2ccccc12
AC50 [1]: 2.59 µM [falling, partial curve, poor fit]

CN1c2ccc([N+](=O)[O-])cc2N(C)C1(C)c1ccccc1 (centres undefined)
AC50 [1]: 15.8 µM [rising, partial curve, poor fit]

C/C(CC(=O)Nc1ccc(Cl)cc1Cl)=N\NC(=O)c1cnccn1
AC50 [1]: 10 µM [falling, partial curve, poor fit]

Cc1nnc(NC(=O)c2cccc(S(=O)(=O)N3CCc4ccccc43)c2)s1
AC50 [1]: 0.0731 µM [rising, full curve, poor fit]

CC1(C)CC(NS(=O)(=O)OCC(Cl)(Cl)Cl)c2cc(C#N)ccc2O1 (centres undefined)
AC50 [1]: 15.8 µM [falling, partial curve, poor fit]

Source: PubChem BioAssay AID493014 (National Center for Advancing Translational Sciences (NCATS), 2011)
